Experimental findings from patent US20100003711A1, “Methods to identify therapeutic agents” (THE SCRIPPS RESEARCH INSTITUTE, priority 2005, published 2010) are described below.

The test system of this series is J774A.1 macrophages. Description: Cholesterol ozonation product uptake and localization by fluorescence microscopy. The series is classed as cell-based, murine. To be noted: 50 μM dansyl derivatives, 5 min to 1 h, without LDL.
`CC(C)CCC[C@@H](C)[C@H]1CCC2C(CC=O)C([C@@]3(C)CC[C@H](O)CC3=O)CC[C@@]21C` (stereo partly shown) [4a, 3βHydroxy-5-oxo-5,6-secocholestan-6-al]: the “uptake and localization in macrophages” value is recorded as “efficiently taken up by macrophages even when not complexed with LDL”.

As for `C[C@H](CCCC(=O)NS(=O)(=O)c1cccc2c(N(C)C)cccc12)[C@H]1CCC2C3C(CC[C@@]21C)C1(C)CC[C@H](O)CC1(O)[C@@H]3C=O` (stereo partly shown) [5e], the “uptake and localization in macrophages” value is listed as “initial punctate cytosolic accumulation”.

For `CC(C)CCC[C@@H](C)[C@H]1CCC2C3C(CC[C@@]21C)[C@@]1(C)CC[C@H](O)C[C@@]1(O)[C@@H]3C=O` (stereo partly drawn) [5a, 3β-Hydroxy-5β-hydroxy-B-norcholestane-6βcarboxaldehyde], the “uptake and localization in macrophages” value is listed as “efficiently taken up by macrophages even when not complexed with LDL”.

With `C[C@H](CCCC(=O)NS(=O)(=O)c1cccc2c(N(C)C)cccc12)[C@H]1CCC2C3CC=C4C[C@@H](O)CCC4(C)C3CC[C@@]21C` (stereo partly shown) [9d, reference compound], the “uptake and localization in macrophages” value is recorded as “minimal fluorescence”.
